Consider two molecules from article PMC4424349.

No constants are given. Whether binding was seen depends on the method and setting. Binding seen in cells or lysates may run through a third protein. A yes stands for co-enrichment or nearness to the bait. Other partners may have been found. For some assays here: No binding means not detected with the bait. Sequences can lack the tags named with a protein.

Test [1] addresses T1, PfMyoB-GFP (Plasmodium falciparum myosin B with C-terminal GFP) (Plasmodium falciparum 3D7), Q8I465.
T1 chain: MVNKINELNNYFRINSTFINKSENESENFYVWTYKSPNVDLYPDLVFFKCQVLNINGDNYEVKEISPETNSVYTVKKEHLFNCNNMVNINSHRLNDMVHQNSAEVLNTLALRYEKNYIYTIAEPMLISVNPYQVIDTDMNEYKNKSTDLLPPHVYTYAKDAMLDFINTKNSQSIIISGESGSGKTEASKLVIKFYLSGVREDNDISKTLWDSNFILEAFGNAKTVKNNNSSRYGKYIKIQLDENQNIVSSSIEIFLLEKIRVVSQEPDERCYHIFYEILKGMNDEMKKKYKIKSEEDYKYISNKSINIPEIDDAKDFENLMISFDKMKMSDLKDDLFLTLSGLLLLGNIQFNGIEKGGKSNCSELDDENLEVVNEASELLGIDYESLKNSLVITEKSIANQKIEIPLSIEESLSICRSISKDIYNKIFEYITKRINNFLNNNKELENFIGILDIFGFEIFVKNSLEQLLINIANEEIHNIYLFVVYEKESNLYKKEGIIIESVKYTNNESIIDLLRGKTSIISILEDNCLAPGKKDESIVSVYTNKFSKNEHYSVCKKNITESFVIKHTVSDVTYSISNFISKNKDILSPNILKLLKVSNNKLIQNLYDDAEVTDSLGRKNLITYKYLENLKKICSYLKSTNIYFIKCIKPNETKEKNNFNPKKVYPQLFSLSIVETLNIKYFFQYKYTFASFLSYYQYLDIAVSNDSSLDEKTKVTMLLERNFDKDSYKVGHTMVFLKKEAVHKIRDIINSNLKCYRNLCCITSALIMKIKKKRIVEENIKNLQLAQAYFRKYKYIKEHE
The test can be described thus: affinity purification with mass spectrometry; GFP-Trap immunoprecipitates of schizont lysates, SDS-PAGE, trypsin digestion, LC-MS/MS; proteins with three or more peptides and absent from the 3D7 control. The settings on record: remark: other sources report otherwise.

For test [2], the target named is T2, PfMLC-B-GFP (P. falciparum myosin light chain B with C-terminal GFP) (Plasmodium falciparum 3D7) (UniProt Q8III1).
T2 sequence: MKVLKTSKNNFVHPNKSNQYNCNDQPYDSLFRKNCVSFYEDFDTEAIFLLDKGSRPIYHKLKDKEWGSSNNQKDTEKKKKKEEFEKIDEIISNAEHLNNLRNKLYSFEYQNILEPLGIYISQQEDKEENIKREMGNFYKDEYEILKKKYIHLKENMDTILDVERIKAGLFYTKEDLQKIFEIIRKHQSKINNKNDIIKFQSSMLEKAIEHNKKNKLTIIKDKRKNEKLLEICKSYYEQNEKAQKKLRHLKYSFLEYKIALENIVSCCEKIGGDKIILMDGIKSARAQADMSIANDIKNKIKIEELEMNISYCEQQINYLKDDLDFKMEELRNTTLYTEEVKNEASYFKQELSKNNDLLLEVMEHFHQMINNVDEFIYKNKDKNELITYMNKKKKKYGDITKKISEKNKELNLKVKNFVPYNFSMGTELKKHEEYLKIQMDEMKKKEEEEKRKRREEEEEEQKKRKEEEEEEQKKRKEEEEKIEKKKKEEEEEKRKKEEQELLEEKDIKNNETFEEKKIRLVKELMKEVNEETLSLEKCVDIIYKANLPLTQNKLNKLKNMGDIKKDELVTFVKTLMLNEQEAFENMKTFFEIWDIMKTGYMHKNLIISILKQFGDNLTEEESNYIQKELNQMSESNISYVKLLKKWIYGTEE
The description is as above.

B1: myosin A tail domain-interacting protein (MTIP), Q8I4W8 1-204 (protein)
chain: MKQECNVCYFNLPDPESTLGPYDNELNYFTWGPGFEYEPEPQRKPLSIEESFENSEESEESVADIQQLEEKVDESDVRIYFNEKSSGGKISIDNASYNARKLGLAPSSIDEKKIKELYGDNLTYEQYLEYLSICVHDKDNVEELIKMFAHFDNNCTGYLTKSQMKNILTTWGDALTDQEAIDALNAFSSEDNIDYKLFCEDILQ
As for B1, the binding entry in test [1] is “no binding”.

B2: Myosin B (MyoB), endogenous untagged (protein, UniProt Q8I465 1-801)
chain: MVNKINELNNYFRINSTFINKSENESENFYVWTYKSPNVDLYPDLVFFKCQVLNINGDNYEVKEISPETNSVYTVKKEHLFNCNNMVNINSHRLNDMVHQNSAEVLNTLALRYEKNYIYTIAEPMLISVNPYQVIDTDMNEYKNKSTDLLPPHVYTYAKDAMLDFINTKNSQSIIISGESGSGKTEASKLVIKFYLSGVREDNDISKTLWDSNFILEAFGNAKTVKNNNSSRYGKYIKIQLDENQNIVSSSIEIFLLEKIRVVSQEPDERCYHIFYEILKGMNDEMKKKYKIKSEEDYKYISNKSINIPEIDDAKDFENLMISFDKMKMSDLKDDLFLTLSGLLLLGNIQFNGIEKGGKSNCSELDDENLEVVNEASELLGIDYESLKNSLVITEKSIANQKIEIPLSIEESLSICRSISKDIYNKIFEYITKRINNFLNNNKELENFIGILDIFGFEIFVKNSLEQLLINIANEEIHNIYLFVVYEKESNLYKKEGIIIESVKYTNNESIIDLLRGKTSIISILEDNCLAPGKKDESIVSVYTNKFSKNEHYSVCKKNITESFVIKHTVSDVTYSISNFISKNKDILSPNILKLLKVSNNKLIQNLYDDAEVTDSLGRKNLITYKYLENLKKICSYLKSTNIYFIKCIKPNETKEKNNFNPKKVYPQLFSLSIVETLNIKYFFQYKYTFASFLSYYQYLDIAVSNDSSLDEKTKVTMLLERNFDKDSYKVGHTMVFLKKEAVHKIRDIINSNLKCYRNLCCITSALIMKIKKKRIVEENIKNLQLAQAYFRKYKYIKEHE
In the case of B2, the binding result in test [2] was “binds”.
